From publication PMC5298958
These are yes or no findings as the source states them, for the method shown.

By UniProt entry, the sequences of proteins in these tests, tags left out.
UniProt P03431: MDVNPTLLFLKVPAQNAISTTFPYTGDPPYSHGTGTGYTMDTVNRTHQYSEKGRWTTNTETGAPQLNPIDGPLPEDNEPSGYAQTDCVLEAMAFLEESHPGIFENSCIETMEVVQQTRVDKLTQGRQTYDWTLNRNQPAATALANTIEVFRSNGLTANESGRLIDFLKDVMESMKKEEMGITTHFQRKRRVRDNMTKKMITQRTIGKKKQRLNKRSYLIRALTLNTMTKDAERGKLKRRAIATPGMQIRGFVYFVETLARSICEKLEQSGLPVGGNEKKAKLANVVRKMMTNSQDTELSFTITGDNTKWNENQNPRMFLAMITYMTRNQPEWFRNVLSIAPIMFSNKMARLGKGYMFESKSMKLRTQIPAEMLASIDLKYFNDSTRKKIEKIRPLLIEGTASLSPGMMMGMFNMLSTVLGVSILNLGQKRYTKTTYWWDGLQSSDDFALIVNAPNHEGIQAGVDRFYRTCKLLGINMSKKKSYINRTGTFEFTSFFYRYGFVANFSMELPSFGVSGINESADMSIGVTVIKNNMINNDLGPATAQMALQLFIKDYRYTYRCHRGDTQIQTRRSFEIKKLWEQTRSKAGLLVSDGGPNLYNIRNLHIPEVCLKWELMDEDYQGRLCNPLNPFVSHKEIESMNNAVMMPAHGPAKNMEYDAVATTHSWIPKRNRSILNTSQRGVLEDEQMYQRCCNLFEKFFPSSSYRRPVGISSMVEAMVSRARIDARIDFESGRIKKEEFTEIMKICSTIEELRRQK

Assays:
Assay in all cases: two-hybrid
[1] = target: Influenza virus RdRp PA subunit fragment PA (453–638) (influenza virus A/PR/8/34) (UniProt P03433)
[2] = target: Influenza virus RNA-dependent RNA polymerase PB1 subunit (influenza virus A/PR/8/34) (UniProt P03431)
[3] = target: Influenza virus RdRp PA subunit fragment PA (347–452) (influenza virus A/PR/8/34) (UniProt P03433)

Substance	binding [1]	binding [2]	binding [3]
Pyruvate kinase M2 (from UniProt P14618 1-531)	no binding	no binding	no binding
Pyruvate kinase M2 fragment PKM (414–531) (from UniProt P14618 414-531) (domain or fragment)	no binding	–	no binding
